Source: US20090175881A1 (SCHERING, published 2009)
Results are given in words; binding and its absence hold for the method and conditions named. Some results given as binding are weak or reduced against the parent protein; the word gives no strength.

What was measured:
[1] = target: cynomolgus monkey IL-17A (cynomolgus monkey); test: ECL (Origen)
[2] = target: cynomolgus monkey IL-17A (cynomolgus monkey); test: KinExA
[3] = target: T1, mouse IL-17A (mouse, UniProt Q62386 26-158, limits assumed); test: ECL (Origen)
T1 construct: also called mu IL-17A; mu IL-17
T1 sequence (looked up): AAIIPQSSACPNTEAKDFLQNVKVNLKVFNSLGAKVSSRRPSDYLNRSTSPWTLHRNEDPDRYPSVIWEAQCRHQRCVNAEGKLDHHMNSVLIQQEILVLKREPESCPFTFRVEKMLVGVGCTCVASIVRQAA

Measured: binding

B1: rat 1D10 (antibody, V domains shown)
VH: QVQLKESGPGLVQPSQTLSLTCTVSGFSLTNYYVHWVRQPPGKGLEWMGGVWNDGDTSYNSVLRSRLSITRDTSKSQVLLKMSSLQTEDTATYYCAREGREGFVGYYVMDAWGPGASVTVSS
VL: DIQMTQSPSFLSASVGERVTLSCKASQNINKYLDWFQQKLGEAPKLLIYNADNLHTGIPSRFSGSGSFSDFILTISSLQPEDDATYFCLQRESWPYTFGAGTKLELKR
notes: Parental rat monoclonal antibody; also called ID10; anti-IL-17A antibody 1D10
binds: [1] | [2] | [3]

B2: rat 23E12 (antibody, V domains shown)
VH: QVQLKESGPGLVQPSQTLSLTCTVFGFSLTNNGVTWVRQPPGKGLEWIAEVSSGGSTDYNSALKSRLSISRDTSKSQVFLRMNSLQTEDTAIYFCARQEVFTGLLDYWGQGVMVTVSS
VL: DIQMTQSPASLSASLGETVTIQCQASEDIYSGLAWYHQKPGKSPQLLILGASRLHDGVPSRFSGSGSGIEYSLKINNMQTEDEGIYFCQQGLKYPPTFGGGTKLELKR
notes: Parental rat monoclonal antibody (hybridoma PTA-7740)
binds: [1] | [2] | [3]
